From article PMC4099368 come the findings set out here.

Amino acid sequences for entries named in this document (tags omitted). Residues count along the entry.
UniProt P43694, residues 200-254: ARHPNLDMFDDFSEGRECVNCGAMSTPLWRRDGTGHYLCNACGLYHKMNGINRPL

The target in assay [1] is T1, GST-ZFPM2/FOG2 p.E30G (human) (UniProt Q8WW38).
T1 sequence: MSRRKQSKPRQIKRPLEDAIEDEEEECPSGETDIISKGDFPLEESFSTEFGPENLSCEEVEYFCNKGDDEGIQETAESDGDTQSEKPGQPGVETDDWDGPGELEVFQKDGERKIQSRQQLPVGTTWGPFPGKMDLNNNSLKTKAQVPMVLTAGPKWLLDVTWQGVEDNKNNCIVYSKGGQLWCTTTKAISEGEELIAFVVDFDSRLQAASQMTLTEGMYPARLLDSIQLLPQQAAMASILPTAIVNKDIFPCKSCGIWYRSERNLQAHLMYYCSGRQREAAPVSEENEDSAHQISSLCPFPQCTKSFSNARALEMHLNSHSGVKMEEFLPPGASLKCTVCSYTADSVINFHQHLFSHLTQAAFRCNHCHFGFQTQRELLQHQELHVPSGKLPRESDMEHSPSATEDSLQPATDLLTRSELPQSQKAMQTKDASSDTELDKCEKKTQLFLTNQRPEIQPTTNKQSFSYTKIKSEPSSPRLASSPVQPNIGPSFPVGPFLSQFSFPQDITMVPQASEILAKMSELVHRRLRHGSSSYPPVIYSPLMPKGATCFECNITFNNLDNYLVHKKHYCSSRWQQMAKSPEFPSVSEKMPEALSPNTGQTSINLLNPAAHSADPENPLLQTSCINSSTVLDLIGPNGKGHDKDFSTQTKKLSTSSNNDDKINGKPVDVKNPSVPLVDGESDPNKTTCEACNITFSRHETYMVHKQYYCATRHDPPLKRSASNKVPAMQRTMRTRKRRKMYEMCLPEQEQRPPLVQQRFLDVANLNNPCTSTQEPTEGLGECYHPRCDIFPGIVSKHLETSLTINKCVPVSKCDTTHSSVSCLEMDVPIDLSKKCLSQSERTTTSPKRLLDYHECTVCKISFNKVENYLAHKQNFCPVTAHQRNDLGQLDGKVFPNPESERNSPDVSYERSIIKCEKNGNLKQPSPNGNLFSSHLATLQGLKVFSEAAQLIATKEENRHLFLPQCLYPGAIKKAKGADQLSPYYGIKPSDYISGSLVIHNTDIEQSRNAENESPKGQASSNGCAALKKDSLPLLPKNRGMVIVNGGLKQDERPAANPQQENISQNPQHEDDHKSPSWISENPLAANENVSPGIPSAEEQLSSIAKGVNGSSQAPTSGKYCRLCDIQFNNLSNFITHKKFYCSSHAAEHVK
As to the kind of experiment: pull-down; GST-ZFPM2/FOG2 (wild type or mutant) bound to 200 µl glutathione resin (Pierce GST Protein Interaction Pull-Down kit), incubated with GATA4 fragment at 4°C; washed with 25 mM Tris-HCl pH 7.2, 150 mM NaCl; eluate on SDS-PAGE, Coomassie staining.

Assay [2] has as its target T2, GST-ZFPM2/FOG2 wild type (human) (UniProt Q8WW38).
T2 sequence: T1 sequence with G30E
The assay is described as above.

Residue numbers refer to the chain shown, from its start. Results are given in words; binding and its absence hold for the method and conditions named. Binding seen in cells or lysates may run through a third protein. Some entries that bind do so weakly or less than the wild type. Where a sequence is shown, tags or fusion partners need not be part of it.

In the case of “N-terminal zinc-finger sequence of GATA4 (residues 200-254) (from UniProt P43694 200-254) (domain or fragment)”, the binding entry in assay [1] and in assay [2] was “binds” in each case.
